Results are given in words; binding and its absence hold for the method and conditions named. Binding seen in cells or lysates may run through a third protein. Some binding calls cover weakened binding; strength is not graded here.
Columns and labels:
[1] = target: soluble endogenous vimentin of rat sciatic nerve axoplasm (rat) (UniProt P31000); experiment: co-immunoprecipitation from 500 micrograms rat sciatic nerve axoplasm 0-6 hours post-lesion, Western blot for pERK
[2] = target: soluble endogenous vimentin of rat sciatic nerve axoplasm (rat) (UniProt P31000); experiment: co-immunoprecipitation with anti vimentin antibody from rat sciatic nerve axoplasm, Western blot
[3] = target: phosphorylated ERK2, rat sciatic nerve axoplasm (rat) (UniProt P63086); experiment: co-immunoprecipitation with anti vimentin antibody from rat sciatic nerve axoplasm, Western blot for phospho-MAPK
[4] = target: phosphorylated ERK1, rat sciatic nerve axoplasm (rat) (UniProt P21708); experiment: as above
[5] = target: phosphorylated ERK2, rat sciatic nerve axoplasm (rat) (UniProt P63086); experiment: co-immunoprecipitation and GST-pull down assay, injured rat sciatic nerve axoplasm
[6] = target: ERK1 in the non-phosphorylated state, rat sciatic nerve axoplasm (rat) (UniProt P21708); experiment: as above
[7] = target: ERK2 in the non-phosphorylated state, rat sciatic nerve axoplasm (rat) (UniProt P63086); experiment: as above
[8] = target: phosphorylated ERK1, rat sciatic nerve axoplasm (rat) (UniProt P21708); experiment: as above
[9] = target: ERK1 in the non-phosphorylated state, rat sciatic nerve axoplasm (rat) (UniProt P21708); experiment: co-immunoprecipitation with anti vimentin antibody from rat sciatic nerve axoplasm, Western blot for MAPK
[10] = target: ERK2 in the non-phosphorylated state, rat sciatic nerve axoplasm (rat) (UniProt P63086); experiment: as above

Sequences of proteins named here, by UniProt entry; tags and fusion partners are left off. Residues count along the entry.
UniProt P31000, residues 2-466: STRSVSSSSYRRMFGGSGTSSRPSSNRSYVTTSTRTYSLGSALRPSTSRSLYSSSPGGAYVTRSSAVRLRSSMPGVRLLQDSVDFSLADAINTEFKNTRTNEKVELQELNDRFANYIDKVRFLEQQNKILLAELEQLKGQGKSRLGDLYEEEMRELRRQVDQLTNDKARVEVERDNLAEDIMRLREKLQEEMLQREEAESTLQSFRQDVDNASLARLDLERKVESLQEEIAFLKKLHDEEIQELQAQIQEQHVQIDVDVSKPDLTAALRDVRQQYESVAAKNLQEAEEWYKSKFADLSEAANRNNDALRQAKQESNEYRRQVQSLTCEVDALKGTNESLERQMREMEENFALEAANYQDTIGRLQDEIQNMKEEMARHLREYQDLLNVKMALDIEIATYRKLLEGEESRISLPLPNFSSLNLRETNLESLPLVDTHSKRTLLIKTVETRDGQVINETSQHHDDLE
UniProt P63086, residues 2-358: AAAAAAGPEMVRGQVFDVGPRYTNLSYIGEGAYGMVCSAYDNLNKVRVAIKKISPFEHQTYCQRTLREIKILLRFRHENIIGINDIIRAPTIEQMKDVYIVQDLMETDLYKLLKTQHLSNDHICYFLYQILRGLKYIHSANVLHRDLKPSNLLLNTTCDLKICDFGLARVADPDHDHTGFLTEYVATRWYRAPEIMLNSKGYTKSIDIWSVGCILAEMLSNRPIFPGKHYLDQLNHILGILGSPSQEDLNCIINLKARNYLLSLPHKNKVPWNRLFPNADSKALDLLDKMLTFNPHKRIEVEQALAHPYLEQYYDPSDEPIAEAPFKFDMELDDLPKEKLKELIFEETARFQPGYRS
UniProt P21708, residues 2-380: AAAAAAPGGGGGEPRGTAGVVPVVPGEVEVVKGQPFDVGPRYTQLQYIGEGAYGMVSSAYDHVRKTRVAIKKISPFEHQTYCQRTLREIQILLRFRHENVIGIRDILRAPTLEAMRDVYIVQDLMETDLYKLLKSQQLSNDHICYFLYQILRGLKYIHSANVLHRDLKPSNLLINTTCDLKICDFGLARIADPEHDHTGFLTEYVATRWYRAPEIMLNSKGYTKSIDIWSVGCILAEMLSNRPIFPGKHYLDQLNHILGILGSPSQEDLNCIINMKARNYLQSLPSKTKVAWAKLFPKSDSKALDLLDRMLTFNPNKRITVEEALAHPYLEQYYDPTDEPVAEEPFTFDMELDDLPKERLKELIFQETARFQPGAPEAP

Measured: binding

phosphorylated ERK1, rat sciatic nerve axoplasm (from UniProt P21708 2-380) (enzyme)
binds: [1] | [2]

phosphorylated ERK2, rat sciatic nerve axoplasm (from UniProt P63086 2-358) (enzyme)
binds: [1] | [2]

soluble endogenous vimentin of rat sciatic nerve axoplasm (from UniProt P31000 2-466)
not listed: [1] | [2]
binds: all other assays above
